Results taken from paper PMC7427993.
Results are given in words; binding and its absence hold for the method and conditions named.

Protein sequences, listed by entry. Tags and fused reporters are not part of them. Residues count along the entry.
UniProt Q99P84, residues 1284-2098: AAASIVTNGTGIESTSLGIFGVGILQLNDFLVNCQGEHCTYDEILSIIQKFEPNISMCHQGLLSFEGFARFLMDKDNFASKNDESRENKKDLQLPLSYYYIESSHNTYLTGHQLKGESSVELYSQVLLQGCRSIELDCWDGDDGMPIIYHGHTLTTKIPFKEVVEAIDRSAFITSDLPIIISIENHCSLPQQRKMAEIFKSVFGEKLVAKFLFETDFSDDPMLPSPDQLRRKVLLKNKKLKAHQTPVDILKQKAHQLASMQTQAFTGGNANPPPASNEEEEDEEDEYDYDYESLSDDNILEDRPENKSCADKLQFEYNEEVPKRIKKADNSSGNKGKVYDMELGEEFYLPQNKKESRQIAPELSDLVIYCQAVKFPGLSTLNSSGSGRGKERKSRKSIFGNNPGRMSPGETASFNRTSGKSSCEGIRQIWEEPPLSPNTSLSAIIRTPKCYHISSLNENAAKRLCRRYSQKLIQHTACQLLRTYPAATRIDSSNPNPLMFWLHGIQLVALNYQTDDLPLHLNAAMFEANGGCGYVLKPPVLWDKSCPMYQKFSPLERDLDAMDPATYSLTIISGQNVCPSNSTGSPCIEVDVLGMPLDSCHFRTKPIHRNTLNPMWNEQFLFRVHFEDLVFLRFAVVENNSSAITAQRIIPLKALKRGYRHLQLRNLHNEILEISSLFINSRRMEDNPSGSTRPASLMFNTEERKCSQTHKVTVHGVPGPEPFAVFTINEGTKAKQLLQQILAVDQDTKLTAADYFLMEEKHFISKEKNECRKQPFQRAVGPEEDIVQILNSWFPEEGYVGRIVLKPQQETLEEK

Legend:
[1] = target: PLCε EF3-RA1 (phospholipase Cε, R. norvegicus, residues 1284–2098), TEV-cleaved, as crystallised (R. norvegicus) (UniProt Q99P84); test: crystal structure; 2.7 Å; four copies in the asymmetric unit arranged as two nearly identical dimers; the αX–Y helix packs against EF3/4 of the same chain in an adjacent unit cell; crystals from 100 mM MES pH 5.8, 0.2 M NaCl, 6.5% PEG 8000, 12 °C, equimolar CaCl2; both purified
[2] = target: PLCε EF3-RA1 (phospholipase Cε, R. norvegicus, residues 1284–2098), as used for SEC-SAXS (R. norvegicus) (UniProt Q99P84); test: SEC + other: SAXS; SEC-SAXS; Superdex 200 Increase 10/300 GL; EF3-RA1 at 2–3 mg/mL in S200 buffer (50 mM Tris-Cl pH 7.5, 200 mM NaCl, 2 mM DTT, 0.1 mM EDTA, 0.1 mM EGTA); both purified

Row | binding [1] | binding [2] | Substance
1 | no binding |  | PLCε EF3-RA1 (phospholipase Cε, R. norvegicus, residues 1284–2098), TEV-cleaved, as crystallised (from UniProt Q99P84 1284-2098) (domain or fragment)
2 |  | no binding (tested: 2–3 mg/mL) | PLCε EF3-RA1 (phospholipase Cε, R. norvegicus, residues 1284–2098), as used for SEC-SAXS (from UniProt Q99P84 1284-2098) (domain or fragment)
